In article PMC11288445:
Results are given in words; binding and its absence hold for the method and conditions named. For some assays here: Binding seen in cells or lysates may run through a third protein. Some results given as binding are weak or reduced against the parent protein; the word gives no strength. Where a sequence is shown, tags or fusion partners need not be part of it.

T1: 6xHis-TCP24 (Arabidopsis thaliana TCP24, N-terminal six-histidine tag) (Arabidopsis thaliana) (UniProt Q9C758)
T1 sequence: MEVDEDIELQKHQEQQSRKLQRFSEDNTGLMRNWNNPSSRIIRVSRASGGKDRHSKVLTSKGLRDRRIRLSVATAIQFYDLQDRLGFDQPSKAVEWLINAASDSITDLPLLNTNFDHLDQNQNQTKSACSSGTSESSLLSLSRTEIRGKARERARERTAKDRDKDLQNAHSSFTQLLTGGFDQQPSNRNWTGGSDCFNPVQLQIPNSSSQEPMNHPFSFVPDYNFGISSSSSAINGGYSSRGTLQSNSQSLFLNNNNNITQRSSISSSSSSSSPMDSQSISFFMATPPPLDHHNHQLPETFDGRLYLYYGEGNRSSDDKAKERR


Legend:
[1] = target: T1, 6xHis-TCP24 (Arabidopsis thaliana TCP24, N-terminal six-histidine tag) (Arabidopsis thaliana); test: far-Western, overlay or dot blot; 6xHis-tagged proteins resolved on 4-20% gels and transferred to nitrocellulose; blots overlayed with 15 μg soluble protein extracts from E. coli expressing GST or GST-TCP24 overnight at 4°C; detected with anti-GST antibody; only the target purified
[2] = target: TCP24 fused to the N- or C-terminal portion of YFP (BiFC) (Arabidopsis thaliana) (UniProt Q9C758); test: split reporter; BiFC with N- and C-terminal portions of YFP in N. benthamiana epidermal cells after agroinfiltration; fluorescence microscopy, H4-RFP as nuclear marker

binding [1] | binding [2] | Binder
binds |  | GST-TCP24 (Arabidopsis thaliana TCP24, N-terminal glutathione-S-transferase fusion, from E. coli) (protein, UniProt Q9C758 1-324) MEVDEDIELQKHQEQQSRKLQRFSEDNTGLMRNWNNPSSRIIRVSRASGGKDRHSKVLTSKGLRDRRIRLSVATAIQFYDLQDRLGFDQPSKAVEWLINAASDSITDLPLLNTNFDHLDQNQNQTKSACSSGTSESSLLSLSRTEIRGKARERARERTAKDRDKDLQNAHSSFTQLLTGGFDQQPSNRNWTGGSDCFNPVQLQIPNSSSQEPMNHPFSFVPDYNFGISSSSSAINGGYSSRGTLQSNSQSLFLNNNNNITQRSSISSSSSSSSPMDSQSISFFMATPPPLDHHNHQLPETFDGRLYLYYGEGNRSSDDKAKERR
 | binds | TCP24 fused to the N- or C-terminal portion of YFP (BiFC) (protein, UniProt Q9C758 1-324) MEVDEDIELQKHQEQQSRKLQRFSEDNTGLMRNWNNPSSRIIRVSRASGGKDRHSKVLTSKGLRDRRIRLSVATAIQFYDLQDRLGFDQPSKAVEWLINAASDSITDLPLLNTNFDHLDQNQNQTKSACSSGTSESSLLSLSRTEIRGKARERARERTAKDRDKDLQNAHSSFTQLLTGGFDQQPSNRNWTGGSDCFNPVQLQIPNSSSQEPMNHPFSFVPDYNFGISSSSSAINGGYSSRGTLQSNSQSLFLNNNNNITQRSSISSSSSSSSPMDSQSISFFMATPPPLDHHNHQLPETFDGRLYLYYGEGNRSSDDKAKERR
